# Library screening results

Sequences of proteins named here, by UniProt entry; tags and fusion partners are left off.
UniProt E9BF75, entry or part of it: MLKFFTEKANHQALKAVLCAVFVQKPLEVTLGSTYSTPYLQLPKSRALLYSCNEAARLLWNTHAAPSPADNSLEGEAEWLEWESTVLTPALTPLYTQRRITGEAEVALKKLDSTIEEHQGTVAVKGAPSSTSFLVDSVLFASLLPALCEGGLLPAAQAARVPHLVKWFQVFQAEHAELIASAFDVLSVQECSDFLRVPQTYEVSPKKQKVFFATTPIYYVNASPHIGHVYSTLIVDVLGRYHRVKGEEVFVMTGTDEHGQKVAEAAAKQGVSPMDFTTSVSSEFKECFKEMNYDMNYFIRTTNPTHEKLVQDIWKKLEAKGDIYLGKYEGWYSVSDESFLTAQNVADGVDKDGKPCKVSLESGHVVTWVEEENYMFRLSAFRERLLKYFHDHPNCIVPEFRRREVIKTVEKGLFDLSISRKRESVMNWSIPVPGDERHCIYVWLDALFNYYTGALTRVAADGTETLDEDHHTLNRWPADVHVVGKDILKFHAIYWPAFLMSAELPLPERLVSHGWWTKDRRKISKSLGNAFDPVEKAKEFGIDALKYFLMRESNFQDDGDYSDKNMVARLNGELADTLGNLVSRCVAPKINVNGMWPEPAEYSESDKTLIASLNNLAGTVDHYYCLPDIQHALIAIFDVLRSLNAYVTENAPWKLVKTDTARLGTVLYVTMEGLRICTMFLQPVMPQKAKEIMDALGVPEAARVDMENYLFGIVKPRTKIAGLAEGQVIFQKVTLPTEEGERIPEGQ

Mtb heat-shock: 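Assay on Mycobacterium tuberculosis, filed only as a heat shock assay from Cornell; the read-out is not stated. The concentration is filed as 10 mM, unlikely as a test dose, so the dose is not known. Higher reads as stronger inhibition (inferred: compounds with an IC50 in retests scored well above the rest). Size under these conditions: about 69,000 compounds, about 930 of them at 50% or above in at least one test.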
LdMetRS: 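Primary screen of methionyl-tRNA synthetase; the read-out is not stated. Target: Methionyl-tRNA synthetase (putative), Leishmania donovani (UniProt E9BF75). The test concentration is not given. The values are filed as inhibition. Size under these conditions: about 68,000 compounds, about 24 of them at 50% or above in at least one test.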
Mtb growth Cornell: 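Whole-cell assay for inhibitors of Mycobacterium tuberculosis growth, labelled Cornell in the record; the read-out is not stated. The concentration is filed as 10 mM, unlikely as a test dose, so the dose is not known. Higher means stronger inhibition (inferred from two other growth screens of the library). About 53,000 compounds were tested under these conditions; 1.7% (about 900) showed 50% or more at least once.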

All values are in %.
The controls that fix the scale are not given in the record; negative values are as filed.
Compounds were drawn at random from those tested, without regard to their results.
A dash means the value is not listed here; it may have been measured.

| Compound | Mtb heat-shock | LdMetRS | Mtb growth Cornell |
|---|---|---|---|
| `CC(C)CCN1CCc2cc(C(=O)N(C)C)c(NCC3CC3)nc2CC1` | - | 19.8 | - |
| `Cn1[nH]c(Br)c2/c(=N\CCN)ncnc1-2` | 1.31 | 18.13 | 28.23 |
| `O=C(O)C(F)(F)F.O=C(O)C(F)(F)F.[H][C@]12CCC[C@@]1(COc1cccnc1)CN(CC1CCOCC1)C2` | 2.627 | - | -8.459 |
| `CCn1c(=O)c2cc(S(N)(=O)=O)ccc2n(CC)c1=O` | 0.7573 | 9.677 | -15.62 |
| `Cc1cccc(CN2Cc3[nH]nc(COCC4CC4)c3C2)n1.O=C(O)C(F)(F)F` | -25.14 | - | -0.01848 |
| `O=C(NCCn1cccn1)C1CCC(=O)N(CC2CCCCC2)C1` (stereo unspecified) | -11.49 | 1.338 | -8.995 |
| `Cc1cnn(CC2CCCN2C(=O)c2cnc(-c3ccco3)s2)c1` (stereo unspecified) | -3.597 | 15.95 | 5.851 |
| `Cc1ccc(C(=O)N2CCCC(c3[nH]ncc3S(C)(=O)=O)C2)s1` (stereo unspecified) | -27.16 | -0.7059 | - |
| `Cc1sc(Br)cc1S(=O)(=O)NCCN` | - | 15.16 | - |
| `Cc1nc(N(C)CCCc2nccn2C)c2nc(C)oc2n1` | 3.657 | 9.966 | -3.728 |
| `CCc1c(C)sc2nc3n(CCN4CCOCC4)nc(SC)n3c(=O)c12` | -37.45 | 17 | 16.68 |
| `Cc1ncsc1-c1nc(-c2cccc(CN3CCOCC3)c2)no1` | -19.1 | 6.183 | -63.04 |
| `Cc1cc(C)n(C2CCCN(C(=O)Cc3ccc(C#N)cc3)C2)n1` (stereo unspecified) | -8.984 | 19.44 | - |
| `CC(C)(CNC1CCCN(Cc2ccccn2)C1)CN1CCOCC1` (stereo unspecified) | -12.21 | 10.15 | - |
| `COCCN1CCC12CCN(C(=O)Cc1cccs1)C2.O=C(O)C(F)(F)F` (stereo unspecified) | 3.365 | - | -49.69 |
| `CC(C)Sc1nnc(CCNC(=O)OC(C)(C)C)o1` | -2.954 | 2.075 | - |
| `CC(C)N1CCC[C@H]1C(=O)NCC1CCN(c2cnn(C)c(=O)c2)CC1` | 0.4009 | 7.092 | -41.63 |
| `Cn1cnc2c1C(COCC1CC1)CN(C(=O)c1cccs1)C2` (stereo unspecified) | 19.07 | 9.22 | 22.18 |
| `[H][C@]12CNC[C@@]1(C(=O)NCc1cccc3[nH]ccc13)CN(C(=O)COC)C2` | 3.247 | - | -18.35 |
| `CC(NCc1cc(O)c2cccc(F)c2n1)c1ccc(S(C)(=O)=O)cc1` (stereo unspecified) | -19.88 | 9.044 | -37.21 |
| `Cc1cc(C)n(CC2CCCCN2C(=O)c2ccc(C(N)=O)cc2)n1` (stereo unspecified) | -0.09566 | 14.81 | -52.26 |
| `Cc1cc(CN(C)C(=O)C2CCCN(C(N)=O)C2)no1` (stereo unspecified) | -1.931 | 13.04 | - |
| `Cc1noc(C)c1-c1ccnc(C2CCN(C3CCOCC3)CC2)c1` | 21.87 | 0 | -9.4 |
| `CCOc1ncccc1C(=O)N(C)C1CCN(c2ccccn2)CC1` | -23.9 | 26.52 | - |
| `CCC[C@@H]1CN(C(=O)Cc2sc(C)nc2C)C[C@H]1C(=O)O` | 5.42 | 8.591 | -8.098 |
| `O=C(O)C(F)(F)F.[H][C@]12CCN(C(=O)Cc3ccccc3)C[C@@]1([H])OCCN(CCOC)C2` | -0.863 | - | -0.07594 |
| `O=c1c(-c2ccnc(NC3CCCCC3)n2)cnc2sc(Cl)cn12` | 15.29 | 11.41 | 12.93 |
| `CC(Nc1nccc(CCC(F)(F)F)n1)c1nc(-c2ccncc2)no1` (stereo unspecified) | 0.9867 | 18.05 | 13.73 |
| `CC(O)CN(C)c1cc(C(F)(F)F)nc(-c2cccnc2)n1` (stereo unspecified) | -20.38 | 25.99 | 16.54 |
| `Cn1ccnc1-c1cnn(CC(=O)Nc2ccnn2C)c1` | -13.36 | 8.362 | - |
| `CC(NCCn1cccn1)c1ccccc1F` (stereo unspecified) | -16.32 | 12.98 | 6.875 |
| `Cc1ncoc1C(=O)N1CCn2c(COc3cccnc3)cnc2C1C` (stereo unspecified) | -17 | -3.268 | -67.54 |
| `COc1cc(C)sc1C(=O)N1CCC(Nc2cccnc2)CC1` | -41.92 | 16.5 | 20.85 |
| `COc1cc2nc3n(c(=O)c2cc1OC)CCN(C(=O)C1CCC1)CC3` | 2.375 | 10.59 | - |
| `c1cnnc(N2CCCC(NCc3cccc4c3OCCCO4)C2)c1` (stereo unspecified) | -0.1382 | 13.19 | - |
| `Cc1c(C(=O)NCCC(=O)N2CCOCC2)oc2c(C)cccc12` | -13.25 | 12.43 | - |
| `O=C(NCc1nnc2n1CCC2)N1CCC2(CCCCC2)CC1` | -2.204 | -0.7692 | 30.88 |
| `c1ccc(-c2nc(CNCCn3cccn3)cs2)nc1` | -25.33 | 12.85 | - |
| `CN(C)CCn1ccnc1C1CCCN(c2nccc3ccccc23)C1` (stereo unspecified) | -4.152 | 9.045 | 3.153 |
| `[H][C@]12CN(CC(C)C)C(=O)[C@@]1([H])CN(c1cnccn1)C2` | -15.9 | - | -34.05 |
| `CCc1cc(NC2CCS(=O)(=O)C2)nc(N2CCCCC2)n1` (stereo unspecified) | -17.07 | 8.71 | 7.47 |
| `CSCc1cc(F)ccc1CNCc1ccncc1` | 20.99 | 14.11 | 3.679 |
| `CNC(=O)c1cnn2c(C3CCCN3C)ccnc12` (stereo unspecified) | -38.56 | 0.6329 | -26.39 |
| `Cc1ccc(CN2CCC3(CC2)CN(C(=O)c2cnccn2)CCO3)o1.O=C(O)C(F)(F)F` | 0.4928 | - | 17.72 |
| `O[C@H]1[C@H](n2cc(-c3ccccc3)nn2)c2ccccc2C12CCNCC2` | 7.328 | 13.27 | -9.98 |
| `Cc1ccccc1OCCCNC(=O)C1(C)CC(=O)N2C=CC=CC2=N1` (stereo unspecified) | 5.679 | 19.81 | 54.27 |
| `CCc1ccc(CN2CCC(CNS(=O)(=O)C3CC3)C2)nc1` (stereo unspecified) | 26.05 | 4.267 | - |
| `Cn1nnc2c1CCN(Cc1ccccc1)C2COCC1CC1` (stereo unspecified) | 11.8 | 24.74 | - |
| `COc1ccc(C(=O)N(c2ccc(OC)c(F)c2)C(C)C)cn1` | -15.8 | 7.258 | -0.6826 |
| `CCOCC1c2c(ncn2C(C)C)CCN1C(=O)CC` (stereo unspecified) | -15.52 | -0.3484 | -11.44 |
| `CC(C)CCN1C[C@@H]2OCCN(c3ncc(F)cn3)[C@@H]2C1` | - | 13.2 | - |
| `CC(C)c1cc(C(=O)N2C[C@@H](C)[C@](O)(C3CC3)C2)[nH]n1` | 5.666 | 5.974 | 27.13 |

Repeated from the top, 3 entries:

| Compound | Mtb heat-shock | LdMetRS | Mtb growth Cornell |
|---|---|---|---|
| `CC(C)CCN1CCc2cc(C(=O)N(C)C)c(NCC3CC3)nc2CC1` | - | 19.8 | - |
| `Cn1[nH]c(Br)c2/c(=N\CCN)ncnc1-2` | 1.31 | 18.13 | 28.23 |
| `O=C(O)C(F)(F)F.O=C(O)C(F)(F)F.[H][C@]12CCC[C@@]1(COc1cccnc1)CN(CC1CCOCC1)C2` | 2.627 | - | -8.459 |

Source: ChEMBL document CHEMBL3988442, “University of Dundee, Small-Polar-MMV Screening Library” (2021).